Results deposited as PubChem BioAssay AID1904 (GNF, 2009)
Only reagents picked out of a larger screen are listed. 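Lists only primary-screen hits; phenotype classes come from fitted traces, and the underlying luminescence values are not given.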 Reagents against one gene are numbered here. Reagent sequences are not shown.

Test: 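Gene silencing that lengthens or shortens period, or boosts amplitude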 (follow-up of hits)
System: human U2OS osteosarcoma cells stably expressing a destabilised luciferase driven by the Bmal1 promoter
Knock-down reagent: siRNA pair against human genes, 12.5 nM (two siRNAs, 0.5 pmol each, per well)
Timing: about 3 days after transfection, then luminescence recorded for about 4 days
Measured: 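Bmal1 reporter light output measured every 2 hours over several days, detrended, then fitted to give period and amplitude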
Hit rule: 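Scored active if separate single siRNAs repeated the clock phenotype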
Calls: active = confirmed by single siRNAs; inactive = not confirmed

TH #1
- clock phenotype class: longer clock period; seen with two independent siRNA pairs for the gene
- confirmed with single siRNAs: phenotype reproduced by individual siRNAs
- Call: active

TH #2
- clock phenotype class: longer clock period; seen with two independent siRNA pairs for the gene
- confirmed with single siRNAs: phenotype reproduced by individual siRNAs
- Call: active

TRPM4 #1
- clock phenotype class: longer clock period; seen with two independent siRNA pairs for the gene
- confirmed with single siRNAs: phenotype reproduced by individual siRNAs
- Call: active

TRPM4 #2
- clock phenotype class: longer clock period; seen with two independent siRNA pairs for the gene
- confirmed with single siRNAs: phenotype reproduced by individual siRNAs
- Call: active

CSNK1A1 #1
- clock phenotype class: longer clock period; seen with two independent siRNA pairs for the gene
- confirmed with single siRNAs: phenotype reproduced by individual siRNAs
- Call: active

CSNK1A1 #2
- clock phenotype class: longer clock period; seen with two independent siRNA pairs for the gene
- confirmed with single siRNAs: phenotype reproduced by individual siRNAs
- Call: active

SLC25A27 #1
- clock phenotype class: shorter clock period; seen with one siRNA pair in duplicate wells
- confirmed with single siRNAs: phenotype not reproduced by individual siRNAs
- Call: inconclusive

SLC25A27 #2
- clock phenotype class: shorter clock period; seen with one siRNA pair in duplicate wells
- confirmed with single siRNAs: phenotype not reproduced by individual siRNAs
- Call: inconclusive

RANBP6 #1
- clock phenotype class: shorter clock period; seen with one siRNA pair in duplicate wells
- confirmed with single siRNAs: phenotype reproduced by individual siRNAs
- Call: active

RANBP6 #2
- clock phenotype class: shorter clock period; seen with one siRNA pair in duplicate wells
- confirmed with single siRNAs: phenotype reproduced by individual siRNAs
- Call: active

SART3 #1
- clock phenotype class: longer clock period; seen with two independent siRNA pairs for the gene
- confirmed with single siRNAs: phenotype reproduced by individual siRNAs
- Call: active

SART3 #2
- clock phenotype class: longer clock period; seen with two independent siRNA pairs for the gene
- confirmed with single siRNAs: phenotype reproduced by individual siRNAs
- Call: active

ENG #1
- clock phenotype class: shorter clock period; seen with one siRNA pair in duplicate wells
- confirmed with single siRNAs: phenotype reproduced by individual siRNAs
- Call: active

ENG #2
- clock phenotype class: shorter clock period; seen with one siRNA pair in duplicate wells
- confirmed with single siRNAs: phenotype reproduced by individual siRNAs
- Call: active

CKLFSF7
- clock phenotype class: shorter clock period; seen with one siRNA pair in duplicate wells
- confirmed with single siRNAs: phenotype reproduced by individual siRNAs
- Call: active

No new results follow: an excerpt of the list.
TH #2
- clock phenotype class: longer clock period; seen with two independent siRNA pairs for the gene
- confirmed with single siRNAs: phenotype reproduced by individual siRNAs
- Call: active

TRPM4 #1
- clock phenotype class: longer clock period; seen with two independent siRNA pairs for the gene
- confirmed with single siRNAs: phenotype reproduced by individual siRNAs
- Call: active

TRPM4 #2
- clock phenotype class: longer clock period; seen with two independent siRNA pairs for the gene
- confirmed with single siRNAs: phenotype reproduced by individual siRNAs
- Call: active

CSNK1A1 #1
- clock phenotype class: longer clock period; seen with two independent siRNA pairs for the gene
- confirmed with single siRNAs: phenotype reproduced by individual siRNAs
- Call: active

CSNK1A1 #2
- clock phenotype class: longer clock period; seen with two independent siRNA pairs for the gene
- confirmed with single siRNAs: phenotype reproduced by individual siRNAs
- Call: active

SLC25A27 #1
- clock phenotype class: shorter clock period; seen with one siRNA pair in duplicate wells
- confirmed with single siRNAs: phenotype not reproduced by individual siRNAs
- Call: inconclusive

Next entries:
GMFG #1
- clock phenotype class: shorter clock period; seen with one siRNA pair in duplicate wells
- confirmed with single siRNAs: phenotype reproduced by individual siRNAs
- Call: active

GMFG #2
- clock phenotype class: shorter clock period; seen with one siRNA pair in duplicate wells
- confirmed with single siRNAs: phenotype reproduced by individual siRNAs
- Call: active

OPN5 #1
- clock phenotype class: longer clock period; seen with two independent siRNA pairs for the gene
- confirmed with single siRNAs: phenotype reproduced by individual siRNAs
- Call: active

OPN5 #2
- clock phenotype class: longer clock period; seen with two independent siRNA pairs for the gene
- confirmed with single siRNAs: phenotype reproduced by individual siRNAs
- Call: active

OPN5 #3
- clock phenotype class: longer clock period; seen with two independent siRNA pairs for the gene
- confirmed with single siRNAs: phenotype reproduced by individual siRNAs
- Call: active

OPN5 #4
- clock phenotype class: longer clock period; seen with two independent siRNA pairs for the gene
- confirmed with single siRNAs: phenotype reproduced by individual siRNAs
- Call: active

ABCC3 #1
- clock phenotype class: longer clock period; seen with two independent siRNA pairs for the gene
- confirmed with single siRNAs: phenotype reproduced by individual siRNAs
- Call: active

ABCC3 #2
- clock phenotype class: longer clock period; seen with two independent siRNA pairs for the gene
- confirmed with single siRNAs: phenotype reproduced by individual siRNAs
- Call: active

MAP3K11 #1
- clock phenotype class: longer clock period; seen with two independent siRNA pairs for the gene
- confirmed with single siRNAs: phenotype reproduced by individual siRNAs
- Call: active

MAP3K11 #2
- clock phenotype class: longer clock period; seen with two independent siRNA pairs for the gene
- confirmed with single siRNAs: phenotype reproduced by individual siRNAs
- Call: active

EMP2 #1
- clock phenotype class: longer clock period; seen with two independent siRNA pairs for the gene
- confirmed with single siRNAs: phenotype reproduced by individual siRNAs
- Call: active

EMP2 #2
- clock phenotype class: longer clock period; seen with two independent siRNA pairs for the gene
- confirmed with single siRNAs: phenotype reproduced by individual siRNAs
- Call: active

MFNG #1
- clock phenotype class: longer clock period; seen with two independent siRNA pairs for the gene
- confirmed with single siRNAs: phenotype reproduced by individual siRNAs
- Call: active

MFNG #2
- clock phenotype class: longer clock period; seen with two independent siRNA pairs for the gene
- confirmed with single siRNAs: phenotype reproduced by individual siRNAs
- Call: active

IKBKB #1
- clock phenotype class: longer clock period; seen with two independent siRNA pairs for the gene
- confirmed with single siRNAs: phenotype reproduced by individual siRNAs
- Call: active

IKBKB #2
- clock phenotype class: longer clock period; seen with two independent siRNA pairs for the gene
- confirmed with single siRNAs: phenotype reproduced by individual siRNAs
- Call: active

C22orf18 #1
- clock phenotype class: shorter clock period; seen with two independent siRNA pairs for the gene
- confirmed with single siRNAs: phenotype not reproduced by individual siRNAs
- Call: inconclusive

C22orf18 #2
- clock phenotype class: shorter clock period; seen with two independent siRNA pairs for the gene
- confirmed with single siRNAs: phenotype not reproduced by individual siRNAs
- Call: inconclusive

SPRR1B #1
- clock phenotype class: shorter clock period; seen with one siRNA pair in duplicate wells
- confirmed with single siRNAs: phenotype reproduced by individual siRNAs
- Call: active

SPRR1B #2
- clock phenotype class: shorter clock period; seen with one siRNA pair in duplicate wells
- confirmed with single siRNAs: phenotype reproduced by individual siRNAs
- Call: active

ATF6 #1
- clock phenotype class: shorter clock period; seen with two independent siRNA pairs for the gene
- confirmed with single siRNAs: phenotype reproduced by individual siRNAs
- Call: active

ATF6 #2
- clock phenotype class: shorter clock period; seen with two independent siRNA pairs for the gene
- confirmed with single siRNAs: phenotype reproduced by individual siRNAs
- Call: active

SSBP1 #1
- clock phenotype class: longer clock period; seen with two independent siRNA pairs for the gene
- confirmed with single siRNAs: phenotype reproduced by individual siRNAs
- Call: active

SSBP1 #2
- clock phenotype class: longer clock period; seen with two independent siRNA pairs for the gene
- confirmed with single siRNAs: phenotype reproduced by individual siRNAs
- Call: active

TWIST2 #1
- clock phenotype class: longer clock period; seen with two independent siRNA pairs for the gene
- confirmed with single siRNAs: phenotype not reproduced by individual siRNAs
- Call: inconclusive

TWIST2 #2
- clock phenotype class: longer clock period; seen with two independent siRNA pairs for the gene
- confirmed with single siRNAs: phenotype not reproduced by individual siRNAs
- Call: inconclusive
